Results reported in PMC4489722.
Results are given in words; binding and its absence hold for the method and conditions named. In cells and extracts the contact can be indirect. Some results given as binding are weak or reduced against the parent protein; the word gives no strength.

Target: STING (human (endogenous in HMVEC-d, HFF)), Q86WV6
Assay: co-IP; endogenous proteins, HFF whole cell lysates in NETN buffer, HSV-1 infected (1 PFU/cell; 30 min and 6 h p.i.); IP anti-STING, western blot for IFI16 and IRF-3
Details: remark: other sources report otherwise

B1: IRF-3, Q14653 1-427 (protein)
chain: MGTPKPRILPWLVSQLDLGQLEGVAWVNKSRTRFRIPWKHGLRQDAQQEDFGIFQAWAEATGAYVPGRDKPDLPTWKRNFRSALNRKEGLRLAEDRSKDPHDPHKIYEFVNSGVGDFSQPDTSPDTNGGGSTSDTQEDILDELLGNMVLAPLPDPGPPSLAVAPEPCPQPLRSPSLDNPTPFPNLGPSENPLKRLLVPGEEWEFEVTAFYRGRQVFQQTISCPEGLRLVGSEVGDRTLPGWPVTLPDPGMSLTDRGVMSYVRHVLSCLGGGLALWRAGQWLWAQRLGHCHTYWAVSEELLPNSGHGPDGEVPKDKEGGVFDLGPFIVDLITFTEGSGRSPRYALWFCVGESWPQDQPWTKRLVMVKVVPTCLRALVEMARVGGASSLENTVDLHISNSHPLSLTSDQYKAYLQDLVEGMDFQGPGES
B1 was tested. Which binding did it give?
The binding was “binds”.
